These are yes or no findings as the source states them, for the method shown. Binding seen in cells or lysates may run through a third protein. Sequences can lack the tags named with a protein.

The target in the experiment is T1, Nap1-9xmyc (yeast) (UniProt P25293).
T1 sequence: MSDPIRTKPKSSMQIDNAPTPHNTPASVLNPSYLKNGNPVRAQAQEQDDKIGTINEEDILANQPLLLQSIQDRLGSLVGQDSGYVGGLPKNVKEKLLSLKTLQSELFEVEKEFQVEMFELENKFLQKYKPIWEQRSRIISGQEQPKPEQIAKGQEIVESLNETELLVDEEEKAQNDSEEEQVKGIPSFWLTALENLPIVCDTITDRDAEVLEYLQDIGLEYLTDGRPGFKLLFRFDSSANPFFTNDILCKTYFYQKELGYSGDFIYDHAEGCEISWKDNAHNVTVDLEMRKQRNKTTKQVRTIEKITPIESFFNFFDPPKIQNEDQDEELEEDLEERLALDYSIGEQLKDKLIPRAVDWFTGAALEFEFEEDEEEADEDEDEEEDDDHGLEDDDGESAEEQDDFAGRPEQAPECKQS
As to the kind of experiment: co-IP; soluble whole cell extract (chromatin pelleted) of Myc-tagged Spt16 or Nap1 yeast, wild-type or HBRΔ as only H2B; anti-myc agarose beads, 4°C overnight; 40 mM HEPES pH 7.5, 0.1% Tween-20, 150 mM NaCl, 10% glycerol; western blot for H2A, H2B, H2AZ, H3; also with nuclease treatment of the extract and in nap1Δ cells.

Regarding “yeast histone H3 (from UniProt P61830 1-136) (other; other documents disagree on this pair)”, the binding entry is given as “no binding”.

The record behind these values is PMC5100577.
